Some of these results come from one statement about several compounds together. For part of these data: At least one compound was matched to its structure with a doubt left.
Columns and labels:
Assay type in all cases: in vivo
Settings in all cases: application rate 320 grams per hectare, scored visually after 3 to 4 weeks
[1] = tested on: Alopecurus myosuroides; assay: Post-emergence herbicidal action against harmful plants
[2] = tested on: Polygonum convolvulus; assay: as above
[3] = tested on: Echinochloa crus galli; assay: Pre-emergence herbicidal action against harmful plants
[4] = tested on: Lolium multiflorum; assay: as above
[5] = tested on: Stellaria media; assay: as above
[6] = tested on: Veronica persica; assay: as above

C=CCNC(=O)C1(OC)CC(c2cc(Cl)cc(Cl)c2)=NO1 (stereo not drawn) [Compound 1.20-16]
at least 90%: efficacy against Alopecurus myosuroides [1] | efficacy against Polygonum convolvulus [2]

COc1cc(F)cc(C2=NOC(OC)(C(=O)NCc3ccc(Cl)nc3)C2)c1 (stereo not drawn) [Compound 1.16-110]
at least 90%: efficacy against Alopecurus myosuroides [1] | efficacy against Polygonum convolvulus [2]

CC#CC(C)NC(=O)C1(OC)CC(c2cc(Cl)cc(Cl)c2)=NO1 (mixture of isomers) [Compound 1.20-55]
at least 90%: efficacy against Echinochloa crus galli [3] | efficacy against Lolium multiflorum [4] | efficacy against Stellaria media [5] | efficacy against Veronica persica [6]

COC1(C(=O)NC(C)C#N)CC(c2cc(F)cc(F)c2)=NO1 (single isomer, unassigned) [1.11-41 D1]
at least 90%: efficacy against Echinochloa crus galli [3] | efficacy against Lolium multiflorum [4] | efficacy against Stellaria media [5] | efficacy against Veronica persica [6]

CCOC(=O)CC(C)NC(=O)C1(OC)CC(c2cc(C)cc(F)c2)=NO1 (stereo not drawn) [Compound 1.14-96]
at least 90%: efficacy against Alopecurus myosuroides [1] | efficacy against Polygonum convolvulus [2]

CCCC(C)(C#N)NC(=O)C1(OC)CC(c2cc(F)cc(F)c2)=NO1 (single isomer, unassigned) [1.11-46 D2]
at least 90%: efficacy against Echinochloa crus galli [3] | efficacy against Lolium multiflorum [4] | efficacy against Stellaria media [5] | efficacy against Veronica persica [6]

CCOC1(C(=O)NCCCC(=O)OC)CC(c2cccc(F)c2)=NO1 (stereo not drawn) [Compound 2.2-102]
at least 90%: efficacy against Alopecurus myosuroides [1] | efficacy against Polygonum convolvulus [2]

COC1(C(=O)NCC#N)CC(c2cc(Cl)cc(Cl)c2)=NO1 (stereo not drawn) [Compound 1.20-40, N-(Cyanomethyl)-3-(3,5-dichlorophenyl)-5-methoxy-4,5-dihydro-1,2-oxazole-5-carboxamide]
at least 90%: efficacy against Alopecurus myosuroides [1] | efficacy against Polygonum convolvulus [2]

COC(=O)CCCNC(=O)C1(OC)CC(c2cc(Br)cc(C(F)(F)F)c2)=NO1 (stereo not drawn) [Compound 1.33-102]
at least 90%: efficacy against Alopecurus myosuroides [1] | efficacy against Polygonum convolvulus [2]

COC1(C(=O)NCc2ccnc(Cl)c2)CC(c2cc(C)cc(F)c2)=NO1 (stereo not drawn) [Compound 1.14-136]
at least 90%: efficacy against Alopecurus myosuroides [1] | efficacy against Polygonum convolvulus [2]

CCOC(=O)CC(C)NC(=O)C1(OC)CC(c2cc(F)cc(C(F)(F)F)c2)=NO1 (stereo not drawn) [Compound 1.18-96]
at least 90%: efficacy against Echinochloa crus galli [3] | efficacy against Lolium multiflorum [4] | efficacy against Stellaria media [5] | efficacy against Veronica persica [6] | efficacy against Alopecurus myosuroides [1] | efficacy against Polygonum convolvulus [2]

CCc1noc(C)c1CNC(=O)C1(OC)CC(c2cccc(F)c2)=NO1 (stereo not drawn) [Compound 1.2-202]
at least 90%: efficacy against Echinochloa crus galli [3] | efficacy against Lolium multiflorum [4] | efficacy against Stellaria media [5] | efficacy against Veronica persica [6]

COC1(C(=O)NC(C)CC#N)CC(c2cc(Cl)cc(Cl)c2)=NO1 (mixture of isomers) [Compound 1.20-20]
at least 90%: efficacy against Echinochloa crus galli [3] | efficacy against Lolium multiflorum [4] | efficacy against Stellaria media [5] | efficacy against Veronica persica [6]

COC1(C(=O)NC(C)c2c(C)noc2C)CC(c2cc(F)cc(F)c2)=NO1 (stereo not drawn) [Compound 1.11-201]
at least 90%: efficacy against Echinochloa crus galli [3] | efficacy against Lolium multiflorum [4] | efficacy against Stellaria media [5] | efficacy against Veronica persica [6]

C=CCNC(=O)C1(OC)CC(c2cc(F)cc(F)c2)=NO1 (stereo not drawn) [Compound 1.11-16]
at least 90%: efficacy against Echinochloa crus galli [3] | efficacy against Lolium multiflorum [4] | efficacy against Stellaria media [5] | efficacy against Veronica persica [6]

CCn1cc(CNC(=O)C2(OC)CC(c3cc(Br)cc(OC(F)(F)F)c3)=NO2)cn1 (stereo not drawn) [Compound 1.32-206]
at least 90%: efficacy against Echinochloa crus galli [3] | efficacy against Lolium multiflorum [4] | efficacy against Stellaria media [5] | efficacy against Veronica persica [6]

COC1(C(=O)NC(C)(C)C#N)CC(c2cccc(F)c2)=NO1 (stereo not drawn) [Compound 1.2-42]
at least 90%: efficacy against Echinochloa crus galli [3] | efficacy against Lolium multiflorum [4] | efficacy against Stellaria media [5] | efficacy against Veronica persica [6]

COC1(C(=O)NCC(F)(F)C(F)(F)F)CC(c2cccc(F)c2)=NO1 (stereo not drawn) [Compound 1.2-11]
at least 90%: efficacy against Echinochloa crus galli [3] | efficacy against Lolium multiflorum [4] | efficacy against Stellaria media [5] | efficacy against Veronica persica [6] | efficacy against Alopecurus myosuroides [1] | efficacy against Polygonum convolvulus [2]

COC(=O)CCNC(=O)C1(OC)CC(c2cc(Cl)cc(Cl)c2)=NO1 (stereo not drawn) [Compound 1.20-93]
at least 90%: efficacy against Alopecurus myosuroides [1] | efficacy against Polygonum convolvulus [2]

CCn1cc(CNC(=O)C2(OC)CC(c3cccc(Cl)c3)=NO2)cn1 (stereo not drawn) [Compound 1.3-206]
at least 90%: efficacy against Echinochloa crus galli [3] | efficacy against Lolium multiflorum [4] | efficacy against Stellaria media [5] | efficacy against Veronica persica [6] | efficacy against Alopecurus myosuroides [1] | efficacy against Polygonum convolvulus [2]

COC(=O)CCCNC(=O)C1(OC)CC(c2cc(Cl)cc(OC(F)(F)F)c2)=NO1 (stereo not drawn) [Compound 1.25-102]
at least 90%: efficacy against Alopecurus myosuroides [1] | efficacy against Polygonum convolvulus [2]

Source: patent publication US9516880B2, “Herbicidal and fungicidal 5-oxy-substituted 3-phenylisoxazoline-5-carboxamides and 5-oxy-substituted 3-phenylisoxazoline-5-thioamides” (BAYER CROPSCIENCE AG, priority 2012, dated 2016)
